# About 270 (21%) of roughly 1,300 compounds were called active.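 The calls were made as follows: active = dose-dependent rise or fall in viability, either side of zero, with half-maximal concentration at or below a set limit; inconclusive = flat curve at 30 to 70% viability loss, or poor fit; inactive = flat within 30% either way, or potency beyond limit.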 Some of the results follow. Measured potencies and affinities stand elsewhere.
# Test: proliferation inhibition in MITF-low A375 cells – cell-based, cherry-pick samples, set 2, counter-screen for MITF modulator project, dose response (AID 540335);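 also: A375 human melanoma cells which do not depend on MITF; 0% = median of neutral control wells and 100% = double that signal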
# Details: CellTiter-Glo ATP luminescence, 24 h; at 35 µM (top of the series)
row,SMILES,"activity change, negative = decreased viability"
1,O=C1NC2c3c(I)sc(I)c3C(=O)C2O1 (stereo unspecified),inactive: -17.4%
2,Cc1cc(C)n(-c2ccc(C(=O)Nc3ccc(C)c(S(=O)(=O)N4CCOCC4)c3)cc2)n1,inactive: -12.6%
3,Cn1nnnc1Sc1ncnc2scc(-c3ccsc3)c12,inactive: -1.27%
4,Cc1c(OCC(=O)NC2CC(C)(C)NC(C)(C)C2)ccc2c1oc(=O)c1ccccc12,inactive: -14%
5,Cc1ccc(-c2c[n+](Cc3cccc(Cl)c3)c3n2CCC3)cc1,inactive: -7.36%
6,O=C(NC1=C(Nc2ccc(Cl)cc2)C(=O)c2ccccc2C1=O)c1ccccc1,inactive: -34.3%
7,O=C(O)c1cccc(COc2ccccc2Cl)c1,inactive: -0.09%
8,O=C(C[n+]1cc(-c2ccc(F)cc2)n2c1CCC2)c1cccs1,inactive: -0.701%
9,O=C(COC(=O)C1=COCCO1)Nc1c(F)cccc1F,inactive: 2.23%
10,CCSc1ccccc1C(=O)n1nnc2ccccc21,inactive: -32.2%
11,Cc1ccc(-n2[nH]c(=O)c(-c3ccccn3)c2C)cc1,inactive: 0.923%
12,N/C(=N\OC(=O)c1ccc(Cl)cc1Cl)c1ccncc1,inactive: 5.82%
13,CC(C)C(=O)N1CCN(c2ccc(NC(=O)c3ccc([N+](=O)[O-])o3)cc2Cl)CC1,inactive: 29.3%
14,CC(=O)c1cccc(NC(=O)/C=C/c2ccc([N+](=O)[O-])s2)c1,inactive: 5.26%
15,Cn1c(/C=C/c2ccc(Cl)cc2)nc2ccccc2c1=O,inactive: -3.66%
16,Cc1ccccc1OCc1nc2c3cnn(C)c3ncn2n1,inactive: -3.15%
17,COc1ccccc1N1C(=O)N(C(C)=O)C2C1Nc1ccccc1N2C (stereo unspecified),inactive: 10.7%
18,N#C/C(C(=O)c1ccccc1)=C1/CCCCCN1,inactive: 9.85%
19,CN(C)CCNC(=O)COc1ccc(C23CC4CC(CC(C4)C2)C3)cc1,inactive: -10.8%
20,CCCC(=O)NC(c1ccc(OC)c(OC)c1)c1cc(Cl)c2cccnc2c1O (stereo unspecified),inactive: -33.1%
21,CCN(CC)S(=O)(=O)c1ccc(N2CCCC2)c(NC(=O)c2ccc([N+](=O)[O-])o2)c1,inactive: -10.5%

row,SMILES,"activity change, negative = decreased viability"
1,O=C(CCl)Nc1cccc(S(=O)(=O)NC2=NCCCCC2)c1,inactive: 1.18%
2,O=[N+]([O-])/C=C\c1ccc(N2CCCC2)c(F)c1,inactive: -0.297%
3,O=C(N/N=C/c1ccc([N+](=O)[O-])o1)c1ccc(O)cc1,inactive: -17.7%
4,CCNC(=O)CC1C(=O)N(c2ccc(F)cc2)C(=O)N1CCc1ccc(OC)cc1 (stereo unspecified),inactive: 1.95%
5,CN(C)c1ccc(/C=C/c2cccc[n+]2[O-])cc1,inactive: 7.1%
6,CC(=O)N(C)C1=C(N2CCOCC2)C(=O)c2ccccc2C1=O,inactive: -38%
7,O=C(CSc1nnnn1-c1ccc(O)cc1)Nc1cccc(S(=O)(=O)N2CCCC2)c1,inactive: 3.61%
8,CC1CCN(CC2C(=O)O[C@@H]3C[C@@]4(C)CCC[C@H](C)C4=C[C@H]23)CC(C)(C)C1 (stereo partly specified),inactive: -37.1%
9,O=C(CCl)N1CCN(S(=O)(=O)c2ccc3c(c2)CCC3)CC1,inactive: -14%
10,OCc1ccc(N=Nc2ccccc2)cc1,inactive: 8.78%
11,Cc1ccc(NC(=O)/C=C/c2ccc([N+](=O)[O-])s2)c(C)c1,inactive: 21.2%
12,COc1cccc(-c2nnc3sc(-c4cccs4)nn23)c1,inactive: -4.18%
13,Nc1c(N(CCC2=CCCCC2)C(=O)COc2ccc([N+](=O)[O-])cc2)c(=O)[nH]c(=O)n1Cc1ccccc1,inactive: -29%
14,CC(C)c1ccc(C(=O)Nc2cccnc2)cc1,inactive: 7.53%
15,Fc1ccccc1-c1nc(-c2ccncc2)no1,inactive: 10.2%
16,Cc1ccc(NC(=O)CCC(=O)N/N=C/c2ccc([N+](=O)[O-])o2)cc1C,inactive: -3.7%
17,CN1CCN(c2ccccc2NC(=O)c2ccc([N+](=O)[O-])o2)CC1,inactive: -26.5%
18,CN(C)c1ccc(/C=C2\SC(=O)N(CCc3nnc(N)s3)C2=O)cc1,inactive: 10.5%
19,Cc1cc(C(=O)CSc2nnc3ccccn23)c(C)n1-c1ccccc1,inactive: -0.919%
20,O=C(CCCN1C(=O)S/C(=C\c2ccccc2)C1=O)NNC(=O)c1ccccc1O,inactive: -5.72%
21,O=C(N/N=C\c1ccc([N+](=O)[O-])s1)c1cncc(Br)c1,inactive: -26.1%

row,SMILES,"activity change, negative = decreased viability"
1,COc1ccccc1NS(=O)(=O)c1cccc(C(=O)N/N=C/c2ccc([N+](=O)[O-])o2)c1,inactive: -30.3%
2,COC1=C(c2ccccc2)C(=O)c2ccccc2C1=O,inactive: -38.7%
3,CCOC(=O)c1c(C)[nH]c(C)c1C(=O)COC(=O)c1ccc([N+](=O)[O-])s1,inactive: -21.8%
4,CN(C)c1ccc(CNc2ccccn2)cc1,inactive: 4.92%
5,CCN=c1scc(-c2ccco2)n1/N=C/c1ccc(O)cc1,inactive: -2.35%
6,COc1cccc(NC(=O)c2cc3ccccc3cc2OC)c1,inactive: 5.97%
7,O=C(NC1CCCCC1)c1cc2cc(Br)ccc2o1,inactive: 4.15%
8,O=S(=O)(CC(CN1CCCCC1)N1CCCCC1)c1ccc2ccccc2c1 (stereo unspecified),inactive: -11.5%
9,O=C(N/N=C/c1ccccn1)c1cc([N+](=O)[O-])cc([N+](=O)[O-])c1,inactive: -6.72%
10,COc1ccc(N/N=C/c2c(C(=O)O)ccc3ccccc23)cc1,inactive: -34.8%
11,COc1ccc(NC(=O)c2cc(F)cc(F)c2)cc1Cl,inactive: -3.4%
12,CCc1ccc(-c2cc(C(=O)Nn3cnnc3)c3ccccc3n2)cc1,inactive: -19.7%
13,O=C(Cc1cccs1)NCc1ccc(Cl)cc1Cl,inactive: 0.365%
14,Nc1ncnc(Sc2ncccn2)c1[N+](=O)[O-],inactive: -23.9%
15,O=C(CC(=O)c1ccccc1)Nc1ccccc1,inactive: 13.8%
16,O=C(Nc1ccc(Cl)cc1)Nc1cccc(C(=O)O)c1,inactive: 8.31%
17,BrC(=C\c1ccccc1)/C=N/n1cnnc1,inactive: -34.2%
18,O=C(Nc1nc2ccccc2s1)c1ccccc1[N+](=O)[O-],inactive: -6.68%
19,O=C(Cn1ncc(Cl)c(Cl)c1=O)c1ccc(Cl)cc1,inactive: 84.6%
